Assay results reported in US20230192842A1 (published 2023).
These are yes or no findings as the source states them, for the method shown. Some binding calls cover weakened binding; strength is not graded here.

The chains behind the UniProt entries cited, without tags or fusion partners. Where a name states a change or a piece, a line headed by the entry shows the natural chain unless it says otherwise.
UniProt O15551: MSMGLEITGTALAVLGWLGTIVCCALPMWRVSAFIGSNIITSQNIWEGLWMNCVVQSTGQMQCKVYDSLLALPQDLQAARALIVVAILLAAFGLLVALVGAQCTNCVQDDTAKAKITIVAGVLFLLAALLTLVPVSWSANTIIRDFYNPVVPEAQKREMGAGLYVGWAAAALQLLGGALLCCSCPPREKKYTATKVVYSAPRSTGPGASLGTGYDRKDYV

Target: human CLDN3 wild type on RKO KO CLDN3 WT cells (human) (UniProt O15551)
Test: flow cytometry on RKO KO CLDN3 WT cells

binding: binds
B1: 906-mAb (anti-CLDN3 906-mAb, monoclonal antibody version of the scFv of 906-009_LNGFR) (antibody, V domains shown)
VH: QVQLVQSGAEVKKPGSSVKVSCKASGYTFTNYWVHWVRQAPGQGLEWMGRIEPNSSGSQYNEKFKNRVTITADKSTSTAYMELSSLRSEDTAVYYCARGVMVPLDYWGQGTLVTVSS
VL: DIQMTQSPSSLSASVGDRVTITCKASQDINRYIAWYQQKPGKAPKLLIHYTSTLQPGVPSRFSGSGSGTDFTLTISSLQPEDFATYYCLQYETLYSFGQGTKLEIK
